Among the data in paper PMC12594604 are binding values, retold here.

These are yes or no findings as the source states them, for the method shown. Binding seen in cells or lysates may run through a third protein. These calls come from enrichment with a bait or labelling near it, and not all partners need be listed. Tags and fused reporters may be left off the sequences shown.

This assay has as its target T1, HA-tagged WT full-length IGFBP6 (Lenti-HA-IGFBP6) (UniProt P47880).
T1 sequence: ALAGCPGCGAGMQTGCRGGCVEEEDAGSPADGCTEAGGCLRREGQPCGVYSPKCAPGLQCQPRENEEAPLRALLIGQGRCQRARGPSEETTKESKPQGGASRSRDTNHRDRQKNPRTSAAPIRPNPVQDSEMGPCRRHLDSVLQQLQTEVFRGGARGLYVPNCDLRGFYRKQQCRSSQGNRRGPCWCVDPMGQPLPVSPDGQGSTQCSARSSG
The assay is described as follows: affinity purification with mass spectrometry; co-IP combined with MS of lysates of mouse cardiac fibroblasts transfected with Lenti-HA-IGFBP6 or Lenti-HA-EGFP control (legend: anti-IGFBP6 antibody).

For “Tropomyosin 1 (Tpm1), endogenous (from UniProt P58771 1-284)”, the binding entry is given as “binds”.
